Results are given in words; binding and its absence hold for the method and conditions named. Some results given as binding are weak or reduced against the parent protein; the word gives no strength.
How the values were obtained:
[1] = target: Recombinant human Cul5 (amino acids 1-780) (human) (UniProt Q93034); test: SEC-MALS; Superdex 200 10/300 GL, 50 mM HEPES pH 7.5, 150 mM NaCl, 0.5 mM TCEP; SOCS2-EloBC 130 μM, Cul5NTD 110 μM, SOCS2-EloBC-Cul5NTD 90 μM, Cul5-Rbx2 30 μM, SOCS2-EloBC-Cul5-Rbx2 35 μM; both purified
[2] = target: Recombinant human Cul5 (amino acids 1-780) (human) (UniProt Q93034); test: native MS; nano-electrospray TWIM-MS (Synapt G2), samples after gel filtration exchanged into 500 mM ammonium acetate pH 7.0, 5-10 μM; both purified

Which results are given for “Recombinant human Rbx2 (amino acids 1-113) (from UniProt Q9UBF6 1-113)”?
binding [1]: binds; binding [2]: binds

Source: paper PMC4326827, “Biophysical Studies on Interactions and Assembly of Full-size E3 Ubiquitin Ligase” (The Journal of Biological Chemistry, 2014)
